Results are given in words; binding and its absence hold for the method and conditions named. Binding seen in cells or lysates may run through a third protein. Some binding calls cover weakened binding; strength is not graded here. Sequences can lack the tags named with a protein.

In this assay the target is T1, Flag-Kaiso (human) (UniProt Q86T24).
T1 sequence: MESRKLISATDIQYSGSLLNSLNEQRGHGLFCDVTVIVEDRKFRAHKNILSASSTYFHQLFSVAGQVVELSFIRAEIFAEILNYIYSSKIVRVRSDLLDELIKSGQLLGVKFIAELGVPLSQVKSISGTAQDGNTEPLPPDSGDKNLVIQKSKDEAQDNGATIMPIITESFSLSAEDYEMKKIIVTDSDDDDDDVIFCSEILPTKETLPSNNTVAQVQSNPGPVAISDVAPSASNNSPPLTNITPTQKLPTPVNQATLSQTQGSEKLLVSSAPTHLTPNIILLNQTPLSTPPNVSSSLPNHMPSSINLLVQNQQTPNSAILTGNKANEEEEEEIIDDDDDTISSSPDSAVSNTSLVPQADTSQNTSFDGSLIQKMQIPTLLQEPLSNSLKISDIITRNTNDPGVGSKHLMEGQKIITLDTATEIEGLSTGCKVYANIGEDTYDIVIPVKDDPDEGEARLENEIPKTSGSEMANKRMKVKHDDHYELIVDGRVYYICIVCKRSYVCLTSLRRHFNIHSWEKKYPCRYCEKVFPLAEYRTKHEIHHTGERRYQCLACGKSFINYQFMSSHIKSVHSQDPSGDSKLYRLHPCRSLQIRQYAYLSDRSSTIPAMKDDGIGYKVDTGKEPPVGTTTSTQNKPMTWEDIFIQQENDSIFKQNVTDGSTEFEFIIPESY
Kind of assay: co-IP; HUVECs and HMEC-1s co-transfected with pCMV-flag-Kaiso and pCMV-myc-p120ctn, 48 h; Pierce Co-IP kit, pre-cleared lysate incubated with anti-FLAG or anti-Myc antibody-coupled resin at 4 °C overnight; eluate examined by Western blot. Background: A western blot detects proteins with antibodies after separation by electrophoresis.

B1: Myc-p120ctn (protein, UniProt O60716-1 1-968)
chain: MDDSEVESTASILASVKEQEAQFEKLTRALEEERRHVSAQLERVRVSPQDANPLMANGTLTRRHQNGRFVGDADLERQKFSDLKLNGPQDHSHLLYSTIPRMQEPGQIVETYTEEDPEGAMSVVSVETSDDGTTRRTETTVKKVVKTVTTRTVQPVAMGPDGLPVDASSVSNNYIQTLGRDFRKNGNGGPGPYVGQAGTATLPRNFHYPPDGYSRHYEDGYPGGSDNYGSLSRVTRIEERYRPSMEGYRAPSRQDVYGPQPQVRVGGSSVDLHRFHPEPYGLEDDQRSMGYDDLDYGMMSDYGTARRTGTPSDPRRRLRSYEDMIGEEVPSDQYYWAPLAQHERGSLASLDSLRKGGPPPPNWRQPELPEVIAMLGFRLDAVKSNAAAYLQHLCYRNDKVKTDVRKLKGIPVLVGLLDHPKKEVHLGACGALKNISFGRDQDNKIAIKNCDGVPALVRLLRKARDMDLTEVITGTLWNLSSHDSIKMEIVDHALHALTDEVIIPHSGWEREPNEDCKPRHIEWESVLTNTAGCLRNVSSERSEARRKLRECDGLVDALIFIVQAEIGQKDSDSKLVENCVCLLRNLSYQVHREIPQAERYQEAAPNVANNTGPHAASCFGAKKGKDEWFSRGKKPIEDPANDTVDFPKRTSPARGYELLFQPEVVRIYISLLKESKTPAILEASAGAIQNLCAGRWTYGRYIRSALRQEKALSAIADLLTNEHERVVKAASGALRNLAVDARNKELIGKHAIPNLVKNLPGGQQNSSWNFSEDTVISILNTINEVIAENLEAAKKLRETQGIEKLVLINKSGNRSEKEVRAAALVLQTIWGYKELRKPLEKEGWKKSDFQVNLNNASRSQSSHSYDDSTLPLIDRNQKSDKKPDREEIQMSNMGSNTKSLDNNYSTPNERGDHNRTLDRSGDLGDMEPLKGTTPLMQDEGQESLEEELDVLVLDDEGGQVSYPSMQKI
Regarding B1, the binding entry is “binds”.

The values above are taken from article PMC5540925.
